Results are given in words; binding and its absence hold for the method and conditions named. In cells and extracts the contact can be indirect. Some entries that bind do so weakly or less than the wild type.
Biological target: T1, H3K4me3‐R2dz (probe 2)
T1 sequence (peptide, photo-arginine R(dz) at 2; trimethyl-lysine (Kme3) at 4; K(biotin) at 14): ARTKQTARKSTGGKA
Assay: cross-linking + pull-down; 10 µM biotinylated diazirine peptide probe incubated with HEK293T nuclear lysate (0.5 mg/mL) at 4 °C for 1 h, 365 nm UV 30 min on ice, proteins precipitated and dissolved in 1% SDS PBS, streptavidin agarose, western blot; only the target purified

binding: binds
B1: ING2 (protein, UniProt Q9H160 1-280)
chain: MLGQQQQQLYSSAALLTGERSRLLTCYVQDYLECVESLPHDMQRNVSVLRELDNKYQETLKEIDDVYEKYKKEDDLNQKKRLQQLLQRALINSQELGDEKIQIVTQMLELVENRARQMELHSQCFQDPAESERASDKAKMDSSQPERSSRRPRRQRTSESRDLCHMANGIEDCDDQPPKEKKSKSAKKKKRSKAKQEREASPVEFAIDPNEPTYCLCNQVSYGEMIGCDNEQCPIEWFHFSCVSLTYKPKGKWYCPKCRGDNEKTMDKSTEKTKKDRRSR

From paper PMC11005723, “Development of Complementary Photo‐arginine/lysine to Promote Discovery of Arg/Lys hPTMs Interactomes” (Advanced Science, 2024)
